PubChem BioAssay AID1259308 – NCATS, 2017
This is one part, drawn at random, of about 59,000 reagents tested. About 1,510 of them (2.6%) count as active. 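Calls use total luciferase alone and ignore viability, so some active siRNAs may act by altering cell number.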 Unmarked entries are inactive. Reagents against one gene are numbered here. Further read-outs or replicates are left out here.

Assay: 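Candidate targets for better recombinant protein yield in mammalian cells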 (primary screen)
Cells: human HEK293 embryonic kidney cells stably expressing firefly luciferase (HEK-CMV-Luc2-Hygro)
Reagent: single siRNA against human genes, 0.8 pmol siRNA per well
Duration: 72 h
Detection: 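Reporter luminescence and viable-cell signal on separate replicate plates, given as percent of non-targeting control and median/MAD z-scores, plus per-cell luciferase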
Direction: total luciferase, z-score: higher = more reporter protein produced
Hit rule: 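Active when the median/MAD z-score for overall luciferase is greater than 3; a gene was taken forward for validation with new siRNAs if at least two of its three siRNAs passed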
Calls: active = raised luciferase; inactive = no rise

APBA1 #1 gave total luciferase, z-score -0.367.
APBA1 #2 gave total luciferase, z-score -0.426.
For APBA1 #3, the entry reads total luciferase, z-score 1.24.
EEF1A1P15 #1 scored total luciferase, z-score 1.05.
For EEF1A1P15 #2, the values are total luciferase, z-score -0.408.
For EEF1A1P15 #3, the values are total luciferase, z-score -0.0632.
SANBR #1 gave total luciferase, z-score -0.163.
After knock-down of SANBR #2 the results were total luciferase, z-score 0.0076.
Silencing of SANBR #3 came out at: total luciferase, z-score 2.29.
Silencing of HSPA12A #1 resulted in: total luciferase, z-score -0.175.
For HSPA12A #2 the deposit lists total luciferase, z-score -1.48.
Against HSPA12A #3, the values are total luciferase, z-score -1.34.
Depletion of ZC3H7B #1 resulted in: total luciferase, z-score -2.46.
Knock-down of ZC3H7B #2 resulted in: total luciferase, z-score -0.917.
Silencing of ZC3H7B #3 gave: total luciferase, z-score -2.44.

Copied from the list.
SANBR #3, total luciferase, z-score: 2.29
Under “total luciferase, z-score”, APBA1 #2 is entered as -0.426
EEF1A1P15 #3, total luciferase, z-score: -0.0632
Under “total luciferase, z-score”, EEF1A1P15 #2 is entered as -0.408
EEF1A1P15 #1, total luciferase, z-score → 1.05

The results go on:
Depletion of PDE4D #1 gave: total luciferase, z-score -0.266.
With knock-down of PDE4D #2, the screen gave total luciferase, z-score -0.0607.
With knock-down of PDE4D #3 the results were total luciferase, z-score -0.918.
For PDE4D #4 the deposit lists total luciferase, z-score 0.456.
PDE4D #5 gave total luciferase, z-score 0.111.
Silencing of PDE4D #6 resulted in: total luciferase, z-score 0.405.
Against PDE4D #7, the entry reads total luciferase, z-score -0.0435.
After knock-down of PDE4D #8, the screen gave total luciferase, z-score -1.4.
PDE4D #9 showed total luciferase, z-score 0.157.
After knock-down of KIFBP #1, the record shows total luciferase, z-score 0.146.
Against KIFBP #2, the values are total luciferase, z-score 0.987.
KIFBP #3 scored total luciferase, z-score -1.18.
With knock-down of SLC30A4 #1 the results were total luciferase, z-score 0.00141.
Against SLC30A4 #2, the entry reads total luciferase, z-score -0.144.
Knock-down of SLC30A4 #3 came out at: total luciferase, z-score -1.29.
After knock-down of OR2L2 #1 the results were total luciferase, z-score -0.804.
Against OR2L2 #2, the values are total luciferase, z-score 0.274.
OR2L2 #3 scored total luciferase, z-score -0.621.
